Data from article PMC5490171.
These are yes or no findings as the source states them, for the method shown. Binding seen in cells or lysates may run through a third protein. Some entries that bind do so weakly or less than the wild type.

Amino acid sequences for entries named in this document (tags omitted).
UniProt Q96RE9: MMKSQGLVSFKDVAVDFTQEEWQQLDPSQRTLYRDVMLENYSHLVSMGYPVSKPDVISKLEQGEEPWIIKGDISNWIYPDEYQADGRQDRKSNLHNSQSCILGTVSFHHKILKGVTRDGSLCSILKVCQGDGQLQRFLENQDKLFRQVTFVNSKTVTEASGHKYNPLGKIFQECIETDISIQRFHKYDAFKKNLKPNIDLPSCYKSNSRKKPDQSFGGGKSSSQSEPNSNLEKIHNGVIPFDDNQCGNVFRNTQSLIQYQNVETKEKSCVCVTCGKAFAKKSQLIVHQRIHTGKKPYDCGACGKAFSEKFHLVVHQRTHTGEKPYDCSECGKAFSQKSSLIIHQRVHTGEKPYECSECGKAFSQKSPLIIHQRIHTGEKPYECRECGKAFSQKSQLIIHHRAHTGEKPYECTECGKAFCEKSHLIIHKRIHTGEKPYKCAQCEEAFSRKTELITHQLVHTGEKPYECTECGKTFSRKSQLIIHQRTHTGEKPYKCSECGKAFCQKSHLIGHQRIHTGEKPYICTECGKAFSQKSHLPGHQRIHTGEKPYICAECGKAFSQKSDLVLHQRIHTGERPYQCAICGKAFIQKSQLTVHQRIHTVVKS
UniProt Q13263: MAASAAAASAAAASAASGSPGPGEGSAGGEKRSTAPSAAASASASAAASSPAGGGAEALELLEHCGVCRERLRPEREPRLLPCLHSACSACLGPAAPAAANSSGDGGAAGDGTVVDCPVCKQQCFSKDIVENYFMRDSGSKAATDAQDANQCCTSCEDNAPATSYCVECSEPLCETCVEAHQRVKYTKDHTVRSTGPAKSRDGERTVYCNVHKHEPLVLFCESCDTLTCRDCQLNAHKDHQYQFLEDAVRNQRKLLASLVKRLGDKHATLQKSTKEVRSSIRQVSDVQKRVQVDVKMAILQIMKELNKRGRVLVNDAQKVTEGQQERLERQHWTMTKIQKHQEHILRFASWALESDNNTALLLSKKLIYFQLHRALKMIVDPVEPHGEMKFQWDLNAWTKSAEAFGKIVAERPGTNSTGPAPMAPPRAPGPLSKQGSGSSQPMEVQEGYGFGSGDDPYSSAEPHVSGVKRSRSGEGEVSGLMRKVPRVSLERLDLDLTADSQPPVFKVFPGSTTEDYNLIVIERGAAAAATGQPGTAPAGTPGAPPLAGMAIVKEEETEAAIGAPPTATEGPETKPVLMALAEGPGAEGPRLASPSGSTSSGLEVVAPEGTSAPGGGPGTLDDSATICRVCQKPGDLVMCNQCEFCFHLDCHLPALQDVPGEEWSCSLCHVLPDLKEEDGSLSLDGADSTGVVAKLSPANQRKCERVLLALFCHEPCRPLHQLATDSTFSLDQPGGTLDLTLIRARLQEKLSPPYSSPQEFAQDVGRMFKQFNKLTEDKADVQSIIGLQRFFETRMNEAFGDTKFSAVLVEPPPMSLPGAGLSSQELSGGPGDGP

Molecular target: Flag-ZNF300 (human) (UniProt Q96RE9)
Assay: co-IP; HEK293T cells co-transfected with Flag-ZNF300 and HA-KAP1, lysed after 24 h; lysate incubated with Flag monoclonal antibody and GammaBind Plus-Sepharose overnight at 4 °C, beads washed five times with lysis buffer; SDS-PAGE and western blot

binding: binds
Substance: HA-KAP1 (from UniProt Q13263 1-835)
